Literature values as cited in patent publication US11932908B2, “Compositions and methods for diagnosis and treatment of epilepsy” (THE REGENTS OF THE UNIVERSITY OF CALIFORNIA, priority 2004, dated 2024).
“Also recorded” adds a separate entry of the source. For at least one compound, name, drawing or mass did not settle the structure.

Tested on: JME seizures
Settings: JME patients; cited from earlier work

CCCC(CCC)C(=O)O [Valproate]
effect on JME seizures: seizure-suppressing; also recorded: suppress JME seizures; also recorded: seizure suppressing
